From the supplement of paper PMC10849652
The list shows a part of the results.

The chains behind the UniProt entries cited, without tags or fusion partners. Where a name states a change or a piece, a line headed by the entry shows the natural chain unless it says otherwise.
UniProt P98194: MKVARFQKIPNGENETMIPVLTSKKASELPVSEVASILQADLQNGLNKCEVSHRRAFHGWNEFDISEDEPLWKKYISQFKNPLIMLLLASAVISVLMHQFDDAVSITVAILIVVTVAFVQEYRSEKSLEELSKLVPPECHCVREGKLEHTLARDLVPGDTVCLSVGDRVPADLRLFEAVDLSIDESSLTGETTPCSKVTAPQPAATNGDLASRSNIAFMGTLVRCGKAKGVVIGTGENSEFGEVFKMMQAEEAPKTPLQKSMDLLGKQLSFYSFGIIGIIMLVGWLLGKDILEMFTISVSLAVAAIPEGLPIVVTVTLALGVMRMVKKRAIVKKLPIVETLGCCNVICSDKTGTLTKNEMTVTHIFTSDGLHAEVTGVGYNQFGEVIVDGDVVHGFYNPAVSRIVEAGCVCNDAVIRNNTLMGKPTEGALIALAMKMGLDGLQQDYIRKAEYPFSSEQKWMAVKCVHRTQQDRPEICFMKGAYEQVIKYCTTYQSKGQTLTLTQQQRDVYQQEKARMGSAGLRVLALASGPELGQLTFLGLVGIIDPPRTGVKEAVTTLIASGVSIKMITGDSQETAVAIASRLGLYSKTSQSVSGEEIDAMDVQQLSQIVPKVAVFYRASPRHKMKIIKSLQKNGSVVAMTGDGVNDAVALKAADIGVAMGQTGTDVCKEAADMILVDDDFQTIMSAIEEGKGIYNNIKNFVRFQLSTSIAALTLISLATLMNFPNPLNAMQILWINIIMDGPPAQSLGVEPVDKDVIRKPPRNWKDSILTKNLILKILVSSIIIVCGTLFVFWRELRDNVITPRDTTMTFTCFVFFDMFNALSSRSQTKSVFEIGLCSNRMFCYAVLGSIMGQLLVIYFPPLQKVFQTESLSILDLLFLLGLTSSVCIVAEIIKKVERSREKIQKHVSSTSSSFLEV
UniProt Q8WXE1: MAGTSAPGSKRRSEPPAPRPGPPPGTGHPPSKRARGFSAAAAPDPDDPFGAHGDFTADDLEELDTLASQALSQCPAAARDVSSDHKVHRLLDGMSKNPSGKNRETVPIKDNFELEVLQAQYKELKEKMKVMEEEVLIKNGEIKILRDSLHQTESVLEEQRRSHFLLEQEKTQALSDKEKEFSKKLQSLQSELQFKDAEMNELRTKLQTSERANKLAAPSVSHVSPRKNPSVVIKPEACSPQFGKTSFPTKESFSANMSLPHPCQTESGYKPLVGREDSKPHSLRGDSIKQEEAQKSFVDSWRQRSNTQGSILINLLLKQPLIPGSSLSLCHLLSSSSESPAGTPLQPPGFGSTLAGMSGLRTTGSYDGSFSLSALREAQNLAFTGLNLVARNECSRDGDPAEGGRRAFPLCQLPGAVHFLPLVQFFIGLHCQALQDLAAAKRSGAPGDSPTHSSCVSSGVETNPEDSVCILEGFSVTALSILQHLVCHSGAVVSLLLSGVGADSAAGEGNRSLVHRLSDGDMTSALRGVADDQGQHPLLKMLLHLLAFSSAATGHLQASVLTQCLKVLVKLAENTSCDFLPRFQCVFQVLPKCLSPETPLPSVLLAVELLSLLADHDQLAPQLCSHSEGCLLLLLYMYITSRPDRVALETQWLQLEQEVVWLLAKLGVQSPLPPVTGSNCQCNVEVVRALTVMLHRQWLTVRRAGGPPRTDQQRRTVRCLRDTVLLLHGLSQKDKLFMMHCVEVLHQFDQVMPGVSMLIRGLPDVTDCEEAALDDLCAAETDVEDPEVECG
UniProt Q12797: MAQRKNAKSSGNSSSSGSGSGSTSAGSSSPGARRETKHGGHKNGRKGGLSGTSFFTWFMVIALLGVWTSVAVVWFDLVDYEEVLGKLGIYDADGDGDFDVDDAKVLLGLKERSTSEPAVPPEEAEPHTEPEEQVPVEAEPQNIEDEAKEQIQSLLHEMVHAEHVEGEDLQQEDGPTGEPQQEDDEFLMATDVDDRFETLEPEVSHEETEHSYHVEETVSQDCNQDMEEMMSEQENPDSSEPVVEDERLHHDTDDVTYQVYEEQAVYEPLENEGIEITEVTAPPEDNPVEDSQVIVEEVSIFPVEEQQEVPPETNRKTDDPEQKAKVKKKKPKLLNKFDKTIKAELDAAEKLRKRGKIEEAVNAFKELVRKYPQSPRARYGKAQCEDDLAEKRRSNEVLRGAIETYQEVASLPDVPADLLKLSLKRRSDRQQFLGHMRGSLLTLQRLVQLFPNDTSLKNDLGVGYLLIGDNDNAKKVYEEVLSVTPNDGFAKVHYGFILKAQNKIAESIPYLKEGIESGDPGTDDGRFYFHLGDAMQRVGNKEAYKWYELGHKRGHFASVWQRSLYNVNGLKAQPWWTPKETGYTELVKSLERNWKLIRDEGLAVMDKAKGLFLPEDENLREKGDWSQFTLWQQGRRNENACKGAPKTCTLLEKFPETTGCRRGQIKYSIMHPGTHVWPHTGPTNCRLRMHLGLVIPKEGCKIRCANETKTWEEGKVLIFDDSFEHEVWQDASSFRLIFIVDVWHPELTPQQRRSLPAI
UniProt L0R819, whole entry, looked up: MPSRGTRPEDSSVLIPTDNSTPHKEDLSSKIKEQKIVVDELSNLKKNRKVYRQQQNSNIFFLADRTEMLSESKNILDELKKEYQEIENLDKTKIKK
UniProt Q9Y4P1: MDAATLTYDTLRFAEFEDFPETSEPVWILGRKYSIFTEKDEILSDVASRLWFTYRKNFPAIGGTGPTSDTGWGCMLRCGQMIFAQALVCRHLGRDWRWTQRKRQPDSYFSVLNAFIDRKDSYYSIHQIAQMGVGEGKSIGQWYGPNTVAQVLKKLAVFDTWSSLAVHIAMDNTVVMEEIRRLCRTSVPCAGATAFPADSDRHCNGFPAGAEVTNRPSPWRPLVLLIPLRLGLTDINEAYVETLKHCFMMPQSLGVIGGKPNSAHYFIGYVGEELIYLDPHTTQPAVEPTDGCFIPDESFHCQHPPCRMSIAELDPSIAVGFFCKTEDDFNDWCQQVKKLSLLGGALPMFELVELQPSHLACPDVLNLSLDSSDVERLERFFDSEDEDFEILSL
UniProt O94766: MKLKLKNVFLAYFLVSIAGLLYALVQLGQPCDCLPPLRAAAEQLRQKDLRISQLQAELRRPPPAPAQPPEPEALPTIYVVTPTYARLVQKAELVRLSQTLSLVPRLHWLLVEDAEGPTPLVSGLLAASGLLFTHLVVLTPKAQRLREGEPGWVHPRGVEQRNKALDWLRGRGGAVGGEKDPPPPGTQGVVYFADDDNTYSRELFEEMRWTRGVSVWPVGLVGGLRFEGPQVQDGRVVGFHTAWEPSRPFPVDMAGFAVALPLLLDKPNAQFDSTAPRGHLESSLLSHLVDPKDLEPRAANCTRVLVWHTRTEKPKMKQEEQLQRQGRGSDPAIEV
UniProt O95260: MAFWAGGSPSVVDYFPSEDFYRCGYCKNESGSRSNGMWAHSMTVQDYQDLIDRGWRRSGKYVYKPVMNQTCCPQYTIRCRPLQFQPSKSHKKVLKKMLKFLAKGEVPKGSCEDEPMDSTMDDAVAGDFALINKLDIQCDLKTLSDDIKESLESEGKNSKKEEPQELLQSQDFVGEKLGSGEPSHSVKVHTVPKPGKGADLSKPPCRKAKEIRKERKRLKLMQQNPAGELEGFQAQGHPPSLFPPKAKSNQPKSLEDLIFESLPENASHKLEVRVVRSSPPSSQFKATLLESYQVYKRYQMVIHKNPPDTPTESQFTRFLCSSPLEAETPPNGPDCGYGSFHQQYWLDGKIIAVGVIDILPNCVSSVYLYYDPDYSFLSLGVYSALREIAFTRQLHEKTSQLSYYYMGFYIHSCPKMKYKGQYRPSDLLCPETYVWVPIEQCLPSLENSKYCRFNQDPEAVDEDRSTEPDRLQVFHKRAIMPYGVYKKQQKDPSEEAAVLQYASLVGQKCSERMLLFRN
UniProt O75964: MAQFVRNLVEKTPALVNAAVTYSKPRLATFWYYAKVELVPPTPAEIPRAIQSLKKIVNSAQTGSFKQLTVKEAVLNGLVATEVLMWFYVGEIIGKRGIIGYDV
UniProt Q8N5M1: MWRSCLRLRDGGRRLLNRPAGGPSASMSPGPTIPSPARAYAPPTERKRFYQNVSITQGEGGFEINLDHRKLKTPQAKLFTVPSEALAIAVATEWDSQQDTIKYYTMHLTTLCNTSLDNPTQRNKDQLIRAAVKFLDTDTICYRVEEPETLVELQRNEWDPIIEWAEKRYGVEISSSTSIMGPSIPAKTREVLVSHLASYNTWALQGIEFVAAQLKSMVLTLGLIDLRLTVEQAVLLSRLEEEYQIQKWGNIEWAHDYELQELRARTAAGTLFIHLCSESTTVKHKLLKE
UniProt Q9UII2: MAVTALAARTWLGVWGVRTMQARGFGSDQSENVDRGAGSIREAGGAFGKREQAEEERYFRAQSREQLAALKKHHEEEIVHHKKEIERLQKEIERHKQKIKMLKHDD
UniProt Q8WYN0: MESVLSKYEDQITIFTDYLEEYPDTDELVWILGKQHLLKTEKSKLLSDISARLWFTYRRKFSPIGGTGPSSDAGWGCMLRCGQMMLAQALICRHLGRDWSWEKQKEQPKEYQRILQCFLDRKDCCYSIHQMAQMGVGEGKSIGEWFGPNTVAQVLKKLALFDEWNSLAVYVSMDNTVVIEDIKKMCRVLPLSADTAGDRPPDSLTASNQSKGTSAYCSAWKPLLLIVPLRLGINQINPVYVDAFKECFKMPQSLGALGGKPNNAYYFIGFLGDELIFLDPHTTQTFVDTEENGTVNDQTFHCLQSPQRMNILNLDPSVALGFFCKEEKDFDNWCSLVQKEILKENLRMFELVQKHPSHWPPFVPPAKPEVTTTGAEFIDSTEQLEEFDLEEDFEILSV
UniProt P15336: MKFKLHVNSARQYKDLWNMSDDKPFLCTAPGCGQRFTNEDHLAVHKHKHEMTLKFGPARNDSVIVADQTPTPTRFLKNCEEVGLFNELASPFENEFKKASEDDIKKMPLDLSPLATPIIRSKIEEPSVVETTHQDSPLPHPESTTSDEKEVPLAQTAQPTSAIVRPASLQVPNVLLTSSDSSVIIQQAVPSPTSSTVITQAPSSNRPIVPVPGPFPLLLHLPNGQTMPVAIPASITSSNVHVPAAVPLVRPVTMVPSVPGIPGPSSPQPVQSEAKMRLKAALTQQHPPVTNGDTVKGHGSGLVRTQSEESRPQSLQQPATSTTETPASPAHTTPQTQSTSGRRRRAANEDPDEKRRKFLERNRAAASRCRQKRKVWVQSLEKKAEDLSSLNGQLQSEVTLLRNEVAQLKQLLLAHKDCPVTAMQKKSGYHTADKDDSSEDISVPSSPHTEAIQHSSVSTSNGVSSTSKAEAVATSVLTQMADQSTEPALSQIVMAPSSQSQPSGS
UniProt P98196: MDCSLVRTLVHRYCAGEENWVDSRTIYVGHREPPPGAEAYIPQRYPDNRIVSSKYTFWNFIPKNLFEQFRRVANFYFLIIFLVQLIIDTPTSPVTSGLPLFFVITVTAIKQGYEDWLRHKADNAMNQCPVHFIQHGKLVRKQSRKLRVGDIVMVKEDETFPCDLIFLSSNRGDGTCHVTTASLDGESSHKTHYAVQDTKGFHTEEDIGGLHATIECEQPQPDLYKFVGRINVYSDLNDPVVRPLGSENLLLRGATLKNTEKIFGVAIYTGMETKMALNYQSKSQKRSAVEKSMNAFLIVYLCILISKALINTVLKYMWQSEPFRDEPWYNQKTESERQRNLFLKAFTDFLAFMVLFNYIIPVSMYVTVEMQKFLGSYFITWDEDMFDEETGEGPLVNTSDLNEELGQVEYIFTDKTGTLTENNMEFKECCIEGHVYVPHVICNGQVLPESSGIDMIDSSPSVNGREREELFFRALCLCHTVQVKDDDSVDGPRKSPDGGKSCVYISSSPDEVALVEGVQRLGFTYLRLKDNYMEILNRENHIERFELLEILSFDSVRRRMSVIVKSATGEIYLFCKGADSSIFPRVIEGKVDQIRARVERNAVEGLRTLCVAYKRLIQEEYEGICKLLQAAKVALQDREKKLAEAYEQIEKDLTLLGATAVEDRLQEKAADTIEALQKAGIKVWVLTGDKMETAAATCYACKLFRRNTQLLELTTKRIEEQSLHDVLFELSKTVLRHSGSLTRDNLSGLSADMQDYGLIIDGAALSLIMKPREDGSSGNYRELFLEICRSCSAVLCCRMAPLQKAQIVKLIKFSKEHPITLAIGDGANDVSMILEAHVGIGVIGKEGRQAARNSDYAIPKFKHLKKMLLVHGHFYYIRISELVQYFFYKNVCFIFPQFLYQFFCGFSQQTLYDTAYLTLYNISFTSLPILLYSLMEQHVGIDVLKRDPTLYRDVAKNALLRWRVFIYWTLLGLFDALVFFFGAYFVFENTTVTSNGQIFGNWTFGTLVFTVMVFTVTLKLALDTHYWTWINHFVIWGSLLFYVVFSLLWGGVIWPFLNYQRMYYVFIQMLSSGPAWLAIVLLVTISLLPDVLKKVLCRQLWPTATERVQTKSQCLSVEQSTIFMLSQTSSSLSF
UniProt P56378: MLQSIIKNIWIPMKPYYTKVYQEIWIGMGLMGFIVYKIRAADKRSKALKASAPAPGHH

Key:
Test in all cases: log2 fold change, soluble protein after heating vs DMSO (PISA); higher = thermal stabilisation; K562 lysate, 10 uM; active = over 0.2 and 3.5 SD of the protein, either way, in both replicates (recomputed)
vemurafenib = compound: CCCS(=O)(=O)Nc1ccc(F)c(C(=O)c2c[nH]c3ncc(-c4ccc(Cl)cc4)cc23)c1F [vemurafenib]
In short: (§1)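 The values are log-two fold changes in thermal stability compared with solvent controls and come from duplicates. They were obtained by TMTpro 16plex LC-MS/MS, with channel sums equalised, on the supernatant after 21,000xg for 90 min. That supernatant came from crude K562 extract at 1 mg/mL protein treated with 10 μM compound for 30 min, heated for 3 min across 48°C-58°C, pooled and brought to 0.5% NP-40 at 4°C.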

[1] = compound: CCCS(=O)(=O)Nc1ccc(F)c(C(=O)c2c[nH]c3ncc(Cl)cc23)c1F
In short: as §1

barasertib = compound: CCN(CCCOc1ccc2c(Nc3cc(CC(=O)Nc4cccc(F)c4)[nH]n3)ncnc2c1)CCOP(=O)(O)O [barasertib]
In short: as §1

[2] = compound: CC[C@@H]1C(=O)N(C)c2cnc(Nc3ccc(C(=O)NC4CCN(C)CC4)cc3OC)nc2N1C1CCCC1
In short: as §1

volasertib = compound: CC[C@@H]1C(=O)N(C)c2cnc(Nc3ccc(C(=O)N[C@H]4CC[C@H](N5CCN(CC6CC6)CC5)CC4)cc3OC)nc2N1C(C)C [volasertib]
In short: as §1

[3] = compound: CCn1c(C(=O)N(C2CC2)C2CC2)cc2c3c(ncn3C)c(Nc3cc(C)n(C)n3)nc21
In short: as §1

[4] = compound: CCn1cc(-c2ccnc3[nH]c(-c4cccc(CN(C)C)c4)cc23)c(-c2ccc(NC(=O)N(C)C)cc2)n1
In short: as §1

[5] = compound: CN1CCC(CNc2ccc3ncc(-c4cccc(OC(F)(F)F)c4)n3n2)CC1
In short: as §1

saracatinib = compound: CN1CCN(CCOc2cc(OC3CCOCC3)c3c(Nc4c(Cl)ccc5c4OCO5)ncnc3c2)CC1 [saracatinib]
In short: as §1

sotrastaurin = compound: CN1CCN(c2nc(C3=C(c4c[nH]c5ccccc45)C(=O)NC3=O)c3ccccc3n2)CC1 [sotrastaurin]
In short: as §1

alvocidib = compound: CN1CC[C@H](c2c(O)cc(O)c3c(=O)cc(-c4ccccc4Cl)oc23)[C@H](O)C1 [alvocidib]
In short: as §1

Tubastatin A = compound: CN1CCc2c(c3ccccc3n2Cc2ccc(C(=O)NO)cc2)C1 [Tubastatin A]
In short: as §1

[6] = compound: CNC(=O)C1=CC=CC=C1NC2=NC(=NC=C2Cl)NC3=C(C=C(C=C3)N4CCOCC4)OC
In short: as §1

defactinib = compound: CNC(=O)c1ccc(Nc2ncc(C(F)(F)F)c(NCc3nccnc3N(C)S(C)(=O)=O)n2)cc1 [defactinib]
In short: as §1

[7] = compound: CNc1nc(-c2ccc3c(N)n[nH]c3c2)cc(N2C[C@@H](C(=O)NC3CCCCC3)CC[C@H]2C)n1
In short: as §1

encorafenib = compound: COC(=O)N[C@@H](C)CNc1nccc(-c2cn(C(C)C)nc2-c2cc(Cl)cc(NS(C)(=O)=O)c2F)n1 [encorafenib]
In short: as §1

[8] = compound: COC(=O)[C@H](CCSC)NC(=O)C1=C(C=C(C=C1)NC[C@H](CS)N)C2=CC=CC=C2
In short: as §1

alisertib = compound: COc1cc(Nc2ncc3c(n2)-c2ccc(Cl)cc2C(c2c(F)cccc2OC)=NC3)ccc1C(=O)O [alisertib]
In short: as §1

[9] = compound: COc1cc2nc(-c3cc(F)ccc3O)nc(N[C@@H]3CNC[C@H]3C(C)(C)O)c2cc1OC
In short: as §1

gefitinib = compound: COc1cc2ncnc(Nc3ccc(F)c(Cl)c3)c2cc1OCCCN1CCOCC1 [gefitinib]
In short: as §1

Target | log2 fold change (vemurafenib) | log2 fold change [1] | log2 fold change (barasertib) | log2 fold change [2] | log2 fold change (volasertib) | log2 fold change [3] | log2 fold change [4] | log2 fold change [5] | log2 fold change (saracatinib) | log2 fold change (sotrastaurin) | log2 fold change (alvocidib) | log2 fold change (Tubastatin A) | log2 fold change [6] | log2 fold change (defactinib) | log2 fold change [7] | log2 fold change (encorafenib) | log2 fold change [8] | log2 fold change (alisertib) | log2 fold change [9] | log2 fold change (gefitinib)
ATP2C1 isoform 7 (UniProt P98194) | inactive: 0.135 | inactive: 0.036 | inactive: 0.037 | inactive: 0.076 | inactive: 0.011 | inactive: 0.459 | inactive: -0.024 | inactive: 0.032 | inactive: 0.06 | inactive: -0.032 | inactive: 0.028 | inactive: -0.04 | inactive: -0.052 | inactive: -0.254 | inactive: -0.087 | inactive: 0.043 | inactive: -0.014 | inactive: 0.078 | inactive: 0.019 | inactive: -0.03
ATRIP (UniProt Q8WXE1) | inactive: 0.174 | inactive: 0.002 | inactive: -0.036 | active: -0.281 | inactive: -0.06 | inactive: -0.013 | inactive: 0.031 | inactive: -0.001 | inactive: 0.048 | inactive: 0.002 | inactive: 0.012 | inactive: -0.105 | inactive: -0.074 | inactive: -0.114 | inactive: -0.141 | inactive: 0.068 | inactive: -0.061 | inactive: 0.016 | inactive: 0.03 | inactive: 0.026
ASPH (UniProt Q12797) | inactive: 0.009 | inactive: 0.009 | inactive: -0.001 | inactive: 0.03 | inactive: 0.002 | inactive: -0.018 | inactive: 0.011 | inactive: -0.024 | inactive: 0.055 | inactive: 0.01 | inactive: -0.012 | inactive: 0.018 | inactive: -0.01 | inactive: 0.023 | inactive: -0.006 | inactive: 0.018 | inactive: -0.047 | inactive: 0.042 | inactive: -0.025 | inactive: -0.041
ASDURF (UniProt L0R819) | inactive: -0.023 | inactive: -0.006 | inactive: -0.032 | inactive: 0.019 | inactive: 0.024 | inactive: 0.02 | inactive: 0.051 | inactive: -0.05 | inactive: -0.002 | inactive: 0.035 | inactive: 0.071 | inactive: 0.001 | inactive: -0.073 | inactive: 0.04 | inactive: -0.009 | inactive: -0.019 | inactive: 0.06 | inactive: 0.013 | inactive: 0.003 | inactive: 0.006
ATG4B (UniProt Q9Y4P1) | inactive: 0.036 | inactive: 0.04 | inactive: 0.047 | inactive: 0.012 | inactive: -0.05 | inactive: 0.008 | inactive: 0.148 | inactive: -0.105 | inactive: 0.043 | inactive: 0.039 | inactive: 0.052 | inactive: -0.129 | inactive: 0.025 | inactive: 0 | inactive: -0.025 | inactive: 0 | inactive: -0.018 | inactive: 0.053 | inactive: 0.02 | inactive: -0.071
B3GAT3 (UniProt O94766) | inactive: -0.018 | inactive: -0.001 | inactive: 0.04 | inactive: 0.049 | inactive: -0.058 | inactive: 0.062 | inactive: -0.013 | inactive: -0.001 | inactive: 0.094 | inactive: 0.009 | inactive: -0.03 | inactive: -0.051 | inactive: 0.039 | inactive: 0.069 | inactive: 0.018 | inactive: 0.196 | inactive: -0.011 | inactive: 0.139 | inactive: -0.023 | inactive: -0.141
ATP9B (UniProt O43861) | inactive: -0.046 | inactive: 0.02 | inactive: -0.024 | inactive: -0.081 | inactive: -0.051 | inactive: -0.015 | inactive: -0.07 | inactive: 0.189 | inactive: 0.046 | inactive: -0.071 | inactive: -0.076 | inactive: 0.048 | inactive: 0.044 | inactive: -0.117 | inactive: -0.018 | inactive: 0.068 | inactive: 0.012 | inactive: -0.081 | inactive: 0.16 | inactive: -0.015
ATP13A3 (UniProt Q9H7F0) | inactive: -0.008 | inactive: 0.04 | inactive: -0.003 | inactive: 0.042 | inactive: 0 | inactive: 0.021 | inactive: -0.166 | inactive: -0.022 | inactive: 0.007 | inactive: 0.035 | inactive: -0.035 | inactive: 0.017 | inactive: 0.016 | inactive: -0.089 | inactive: 0.001 | inactive: 0.062 | inactive: -0.089 | inactive: 0.106 | inactive: -0.093 | inactive: -0.098
ATE1 isoform 2 (UniProt O95260) | inactive: 0.118 | inactive: -0.006 | inactive: 0.069 | inactive: 0.019 | inactive: -0.013 | inactive: 0.014 | inactive: 0.032 | inactive: 0.126 | inactive: 0.006 | inactive: -0.016 | inactive: -0.116 | inactive: -0.008 | inactive: 0.036 | inactive: 0 | inactive: 0.038 | inactive: -0.013 | inactive: 0.109 | inactive: 0.021 | inactive: 0.004 | inactive: -0.038
ATP5MG (UniProt O75964) | inactive: 0.028 | inactive: 0.001 | inactive: 0.029 | inactive: -0.005 | inactive: 0.035 | inactive: -0.002 | inactive: -0.092 | inactive: 0.014 | inactive: 0.039 | inactive: -0.047 | inactive: -0.037 | inactive: 0.021 | inactive: 0.012 | inactive: -0.005 | inactive: 0.065 | inactive: -0.032 | inactive: 0.073 | inactive: 0.021 | inactive: 0.002 | inactive: -0.02
ATPAF2 (UniProt Q8N5M1) | inactive: 0.085 | inactive: 0 | inactive: -0.038 | inactive: 0.082 | inactive: 0.044 | inactive: -0.053 | inactive: -0.233 | inactive: 0.077 | inactive: 0.001 | inactive: 0.035 | inactive: -0.12 | inactive: 0.029 | inactive: 0.011 | inactive: 0.022 | inactive: 0.126 | inactive: -0.038 | inactive: -0.037 | inactive: -0.029 | inactive: 0.032 | inactive: -0.093
ATP5IF1 (UniProt Q9UII2) | inactive: 0.024 | inactive: -0.047 | inactive: -0.033 | inactive: 0.064 | inactive: 0.054 | inactive: -0.031 | inactive: 0.038 | inactive: 0.084 | inactive: -0.034 | inactive: -0.043 | inactive: 0.004 | inactive: 0.031 | inactive: -0.034 | inactive: -0.022 | inactive: 0.042 | inactive: -0.003 | inactive: 0.002 | inactive: -0.012 | inactive: 0.015 | inactive: -0.022
ATG4A (UniProt Q8WYN0) | inactive: -0.045 | inactive: 0.033 | inactive: 0.012 | inactive: -0.047 | inactive: -0.015 | inactive: 0.008 | inactive: 0.027 | inactive: -0.045 | inactive: 0.034 | inactive: -0.043 | inactive: 0 | inactive: -0.104 | inactive: 0.042 | inactive: 0.036 | inactive: 0.01 | inactive: 0.037 | inactive: -0.087 | inactive: -0.016 | inactive: -0.001 | inactive: 0.052
ATF2 (UniProt P15336) | inactive: 0.078 | inactive: -0.028 | inactive: -0.102 | inactive: 0.07 | inactive: 0.033 | inactive: -0.014 | inactive: 0.107 | inactive: -0.083 | inactive: 0.026 | inactive: 0.015 | inactive: 0.038 | inactive: -0.006 | inactive: 0.003 | inactive: -0.015 | inactive: 0.075 | inactive: 0.049 | inactive: 0.021 | inactive: -0.044 | inactive: 0.046 | inactive: -0.218
ATP11A (UniProt P98196) | inactive: -0.035 | inactive: -0.015 | inactive: 0.006 | inactive: 0.019 | inactive: 0.026 | inactive: 0 | inactive: -0.116 | inactive: 0.024 | inactive: -0.01 | inactive: 0.063 | inactive: -0.002 | inactive: -0.047 | inactive: -0.021 | inactive: -0.017 | inactive: -0.022 | inactive: 0.028 | inactive: -0.065 | inactive: -0.083 | inactive: 0.01 | inactive: 0.031
ATP5MPL (UniProt P56378) | inactive: -0.025 | inactive: -0.019 | inactive: 0.004 | inactive: -0.054 | inactive: 0.022 | inactive: 0.007 | inactive: 0.077 | inactive: -0.104 | inactive: 0.007 | inactive: 0.029 | inactive: 0.033 | inactive: 0.007 | inactive: -0.022 | inactive: 0.086 | inactive: -0.009 | inactive: 0.035 | inactive: -0.02 | inactive: 0 | inactive: 0.017 | inactive: -0.108

Taken from above:
In log2 fold change [5], ATG4A (UniProt Q8WYN0) is listed with inactive: -0.045
In log2 fold change [4], ATE1 isoform 2 (UniProt O95260) is listed with inactive: 0.032
